Here are results for two substances from publication PMC7910558.

The chains behind the UniProt entries cited, without tags or fusion partners.
UniProt P14618: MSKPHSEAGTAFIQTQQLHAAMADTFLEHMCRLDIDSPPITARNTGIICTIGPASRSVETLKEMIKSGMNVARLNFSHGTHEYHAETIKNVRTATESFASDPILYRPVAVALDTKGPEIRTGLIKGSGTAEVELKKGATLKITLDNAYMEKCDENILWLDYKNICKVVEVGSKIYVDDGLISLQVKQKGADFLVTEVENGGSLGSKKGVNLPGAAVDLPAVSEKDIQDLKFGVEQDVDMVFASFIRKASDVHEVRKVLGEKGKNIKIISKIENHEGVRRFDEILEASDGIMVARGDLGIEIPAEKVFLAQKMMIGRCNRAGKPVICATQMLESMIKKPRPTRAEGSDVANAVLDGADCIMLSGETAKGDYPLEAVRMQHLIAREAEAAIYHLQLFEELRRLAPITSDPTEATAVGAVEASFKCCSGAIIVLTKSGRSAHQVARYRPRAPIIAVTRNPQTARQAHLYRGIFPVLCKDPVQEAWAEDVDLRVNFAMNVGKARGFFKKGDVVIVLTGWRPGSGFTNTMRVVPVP
UniProt Q16665: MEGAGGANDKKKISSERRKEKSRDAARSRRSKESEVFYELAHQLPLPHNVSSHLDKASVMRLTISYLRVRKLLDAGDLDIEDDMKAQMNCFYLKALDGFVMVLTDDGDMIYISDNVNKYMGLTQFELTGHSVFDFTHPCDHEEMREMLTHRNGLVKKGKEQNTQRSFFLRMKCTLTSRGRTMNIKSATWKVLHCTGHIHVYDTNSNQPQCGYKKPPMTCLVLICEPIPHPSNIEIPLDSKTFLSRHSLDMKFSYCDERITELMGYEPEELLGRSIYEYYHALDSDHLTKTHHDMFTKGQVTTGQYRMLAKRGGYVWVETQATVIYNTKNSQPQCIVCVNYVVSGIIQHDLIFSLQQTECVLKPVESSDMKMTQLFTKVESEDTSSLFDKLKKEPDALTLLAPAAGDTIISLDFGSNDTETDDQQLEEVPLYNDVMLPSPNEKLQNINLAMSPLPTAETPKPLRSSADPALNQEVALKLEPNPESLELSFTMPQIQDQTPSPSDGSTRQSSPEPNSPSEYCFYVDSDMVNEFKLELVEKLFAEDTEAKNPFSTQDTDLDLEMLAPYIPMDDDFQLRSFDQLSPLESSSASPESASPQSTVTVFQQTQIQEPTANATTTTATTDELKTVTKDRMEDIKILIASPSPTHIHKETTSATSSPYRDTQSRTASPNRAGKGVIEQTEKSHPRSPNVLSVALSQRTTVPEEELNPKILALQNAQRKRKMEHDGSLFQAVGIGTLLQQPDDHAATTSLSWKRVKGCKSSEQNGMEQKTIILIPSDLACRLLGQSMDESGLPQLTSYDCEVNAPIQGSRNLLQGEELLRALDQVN
UniProt Q09472: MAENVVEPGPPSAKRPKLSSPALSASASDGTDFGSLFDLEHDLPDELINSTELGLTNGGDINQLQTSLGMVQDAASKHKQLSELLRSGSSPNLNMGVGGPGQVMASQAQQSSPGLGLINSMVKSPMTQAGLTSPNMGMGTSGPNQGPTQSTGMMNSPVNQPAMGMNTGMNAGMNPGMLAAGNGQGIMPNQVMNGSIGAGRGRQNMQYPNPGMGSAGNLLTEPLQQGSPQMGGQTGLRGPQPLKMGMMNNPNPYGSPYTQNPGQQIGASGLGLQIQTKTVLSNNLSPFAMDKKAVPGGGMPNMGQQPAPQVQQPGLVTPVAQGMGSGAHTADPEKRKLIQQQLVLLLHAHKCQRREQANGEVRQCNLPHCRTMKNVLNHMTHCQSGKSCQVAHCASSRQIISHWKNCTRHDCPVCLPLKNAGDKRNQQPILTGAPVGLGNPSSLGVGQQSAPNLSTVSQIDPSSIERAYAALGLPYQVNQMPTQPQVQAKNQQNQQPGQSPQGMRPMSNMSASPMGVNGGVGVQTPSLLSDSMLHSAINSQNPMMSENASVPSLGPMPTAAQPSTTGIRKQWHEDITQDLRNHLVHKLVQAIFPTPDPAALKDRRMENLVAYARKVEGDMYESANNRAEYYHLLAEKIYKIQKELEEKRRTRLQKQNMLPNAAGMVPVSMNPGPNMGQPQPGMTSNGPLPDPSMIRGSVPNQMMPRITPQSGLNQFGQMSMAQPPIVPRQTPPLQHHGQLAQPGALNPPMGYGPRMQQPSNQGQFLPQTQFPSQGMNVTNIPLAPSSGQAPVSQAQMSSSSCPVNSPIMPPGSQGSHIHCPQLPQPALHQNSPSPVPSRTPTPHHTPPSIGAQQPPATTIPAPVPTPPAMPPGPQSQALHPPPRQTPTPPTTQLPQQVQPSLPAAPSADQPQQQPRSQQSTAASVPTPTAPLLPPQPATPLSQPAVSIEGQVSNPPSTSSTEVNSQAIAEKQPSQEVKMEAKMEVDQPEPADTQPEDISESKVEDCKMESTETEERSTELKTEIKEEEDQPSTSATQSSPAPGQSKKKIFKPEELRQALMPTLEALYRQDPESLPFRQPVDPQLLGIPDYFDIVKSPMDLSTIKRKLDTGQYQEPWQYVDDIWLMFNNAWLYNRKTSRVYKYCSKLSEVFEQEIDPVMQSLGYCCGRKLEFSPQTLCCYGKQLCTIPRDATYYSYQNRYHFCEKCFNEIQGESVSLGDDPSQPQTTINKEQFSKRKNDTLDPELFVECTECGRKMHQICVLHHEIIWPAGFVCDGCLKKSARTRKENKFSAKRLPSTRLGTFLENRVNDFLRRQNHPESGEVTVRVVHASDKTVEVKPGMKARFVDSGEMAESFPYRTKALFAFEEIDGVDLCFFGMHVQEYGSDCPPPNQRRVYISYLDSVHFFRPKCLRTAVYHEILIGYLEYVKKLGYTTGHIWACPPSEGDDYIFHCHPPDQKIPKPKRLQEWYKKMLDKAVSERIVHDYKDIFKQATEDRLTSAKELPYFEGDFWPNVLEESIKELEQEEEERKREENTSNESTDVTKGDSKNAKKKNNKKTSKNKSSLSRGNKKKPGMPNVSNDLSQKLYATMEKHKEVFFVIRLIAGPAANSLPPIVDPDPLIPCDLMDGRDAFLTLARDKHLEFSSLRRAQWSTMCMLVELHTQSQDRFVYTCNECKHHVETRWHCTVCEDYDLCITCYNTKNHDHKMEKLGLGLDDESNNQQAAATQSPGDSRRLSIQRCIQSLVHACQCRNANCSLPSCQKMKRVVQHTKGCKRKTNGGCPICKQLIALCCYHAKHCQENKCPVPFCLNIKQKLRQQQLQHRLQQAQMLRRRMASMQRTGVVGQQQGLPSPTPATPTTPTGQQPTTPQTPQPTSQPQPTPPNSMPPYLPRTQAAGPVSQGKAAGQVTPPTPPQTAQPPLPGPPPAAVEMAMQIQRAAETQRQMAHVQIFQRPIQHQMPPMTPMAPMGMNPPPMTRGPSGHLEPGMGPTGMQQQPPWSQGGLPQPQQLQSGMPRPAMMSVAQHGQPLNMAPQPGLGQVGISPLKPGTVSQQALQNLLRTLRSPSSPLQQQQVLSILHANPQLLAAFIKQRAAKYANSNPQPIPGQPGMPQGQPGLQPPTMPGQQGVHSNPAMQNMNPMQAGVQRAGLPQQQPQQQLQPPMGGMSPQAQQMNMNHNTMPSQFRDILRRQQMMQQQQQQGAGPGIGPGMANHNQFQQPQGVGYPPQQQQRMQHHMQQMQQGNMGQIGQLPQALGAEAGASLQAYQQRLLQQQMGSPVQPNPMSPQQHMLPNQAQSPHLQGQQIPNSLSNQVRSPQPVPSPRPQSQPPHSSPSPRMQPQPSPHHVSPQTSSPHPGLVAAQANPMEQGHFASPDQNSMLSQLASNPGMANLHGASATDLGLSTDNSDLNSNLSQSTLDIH

Results are given in words; binding and its absence hold for the method and conditions named. In cells and extracts the contact can be indirect. Some entries that bind do so weakly or less than the wild type.

The target in assay [1] is pyruvate kinase isozymes M2 (PKM2) (human (endogenous in MDA-MB-231)) (UniProt P14618). Description: co-IP; MDA-MB-231 cells transiently transfected with control or HIFAL-LNAs for 48 h, then cultured under hypoxia; PKM2 with HIF-1α and with p300; which protein was precipitated is not told.
Assay [2] addresses HIF-1α (human (endogenous in MDA-MB-231)) (UniProt Q16665). Description: co-IP; HIF-1α co-immunoprecipitation at indicated time points after hypoxia in HIFAL WT cells, normalized to the corresponding HIF-1α protein levels.
Assay [3] has the same target. Description: co-IP; MDA-MB-231 cells transiently transfected with control or HIFAL-LNAs for 48 h, then cultured under hypoxia; PKM2 with HIF-1α and with p300; which protein was precipitated is not told.

For the substance p300 (from UniProt Q09472 1-2414), the binding entry in assay [1] is listed as “binds”.
“pyruvate kinase isozymes M2 (PKM2) (from UniProt P14618 1-531)”: the binding entry in assay [2] and in assay [3] was “binds” each time.
